According to PubChem BioAssay AID1487 (National Center for Advancing Translational Sciences (NCATS), 2009):
Where “and” joins values, the source holds several entries; their conditions need not be identical. Equal values may be shown once. The list shows a part of the results. These are further read-outs of the screen, such as a control signal, another cell line or another target. No call is given for them. Most of these compounds were active or inconclusive in the main read-out, so they are no random draw. The note in brackets gives the kind of curve behind each potency; many fits are weak.

Test: qHTS Assay for Modulators of Lamin A Splicing
Settings: HeLa LMNA splicing GFP/RFP minigene ratio, 48 h
Summary of the method: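 Read-out is the ratio of GFP to DsRed2 object intensity, acquired by 488 nm laser-scanning cytometry on HeLa lamin A-EGFP minigene reporter cells. Compound incubation 48 hrs at 37 °C in Opti-MEM with 2% FBS; DMSO 0.5% final.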

[1] = measured here: RFP viability control channel
[2] = measured here: GFP splicing reporter channel

Structure (SMILES) | AC50 [1] | AC50 [2]
O=C(c1ccc2c3c(cccc13)CC2)C1CCCN(Cc2ncc[nH]2)C1 (stereo not given) | 0.0224 µM [falling, full curve] | –
C=CCn1c(O)c(C(CC)=NCc2cc(OC)cc(OC)c2)c(=O)[nH]c1=O | 14.1 µM [rising, single point] | –
CS(=O)(=O)c1ccc([C@H](O)[C@H](CF)NC(=O)C(Cl)Cl)cc1 | 14.1 µM [rising, single point] | –
CCCC1(CCC)C(=O)NC(=NCc2ccccc2)NC1=O | 15.8 µM [falling, single point] | 14.1 µM [falling, single point]
Cc1cc(C(=O)CS(=O)c2ccc(F)cc2)cc(C)c1OC(=O)N(C)C (stereo not given) | 14.1 µM [falling, partial curve, poor fit] | –
C[N+]1(C)C2CC(OC(=O)C(CO)c3ccccc3)CC1C1OC12 (stereo not given) | – | 3.55 µM [rising, single point]
CN1C[C@H](C(=O)N[C@]2(C)O[C@@]3(O)C4CCCN4C(=O)[C@H](Cc4ccccc4)N3C2=O)C[C@@H]2c3cccc4[nH]cc(c34)C[C@H]21 (stereo not given in full) | 0.141 µM [rising, full curve, poor fit] | 12.6 µM [rising, partial curve] and 1.78 µM [rising, partial curve, poor fit]
CN1CCC(N(C)c2nc(-c3ccc([N+](=O)[O-])cc3)nc3ccccc23)CC1 | 15.8 µM [rising, single point] | –
FC(F)=C(F)CCSc1ncn[nH]1 | – | 2.51 µM [falling, partial curve, poor fit]
CCCC(C)(COC(N)=O)COC(N)=O | 0.447 µM [falling, partial curve] | 0.141 µM [falling, full curve, poor fit]
CC1=NCCc2c1[nH]c1cc(O)ccc21 | 0.0562 µM [falling, full curve, poor fit] | –
C[C@]12C=CC(=O)N[C@@H]1CC[C@@H]1C2CC[C@]2(C)C(C(=O)Nc3cc(C(F)(F)F)ccc3C(F)(F)F)CC[C@@H]12 (stereo not given in full) | 0.316 µM [rising, partial curve] | –
OC1(c2ccc(Cl)cc2)CCN(Cc2c[nH]c3ccccc23)CC1 | 0.00891 µM [falling, full curve, poor fit] | –
Cc1ccc(S(=O)(=O)N2CCCCC2)cc1NC(=O)CSc1ncnc2ccccc12 | 15.8 µM [rising, partial curve] | –
CN1CCN(C(=S)SCC(=O)Nc2ccc(Cl)cc2C(=O)c2ccccc2)CC1 | 22.4 µM [rising, single point] | 22.4 µM [rising, single point]
CC(=NCCN1CCOCC1)c1c(O)n(C2CCCCC2)c(=O)[nH]c1=O | – | 35.5 µM [rising, single point]
CN(N=O)c1ccc(O)c(O)c1 | – | 0.0224 µM [falling, full curve, poor fit]

Entries from the list above with a Cl atom (3):
Structure (SMILES) | AC50 [1] | AC50 [2]
CS(=O)(=O)c1ccc([C@H](O)[C@H](CF)NC(=O)C(Cl)Cl)cc1 | 14.1 µM [rising, single point] | –
OC1(c2ccc(Cl)cc2)CCN(Cc2c[nH]c3ccccc23)CC1 | 0.00891 µM [falling, full curve, poor fit] | –
CN1CCN(C(=S)SCC(=O)Nc2ccc(Cl)cc2C(=O)c2ccccc2)CC1 | 22.4 µM [rising, single point] | 22.4 µM [rising, single point]

Later entries

Structure (SMILES) | AC50 [1] | AC50 [2]
CCCCCCN1CCN(c2ccccc2Cl)CC1 | 0.00631 µM [falling, full curve, poor fit] | –
CCCN1CCC[C@@H]2Cc3nc(N)ncc3C[C@H]21 | – | 12.6 µM [rising, partial curve, poor fit]
COC(=O)CSc1cc([N+](=O)[O-])cc2c1c(C1OCCO1)nn2-c1ccccc1 | 5.62 µM [falling, partial curve] | 3.98 µM [falling, partial curve]
Cc1ccc(-n2nc(C)c(C3C(C#N)=C(N)Oc4c3c(=O)oc3ccccc43)c2Cl)cc1 (stereo not given) | 11.2 µM [rising, partial curve, poor fit] | –
O=C(O)CCCC[C@H]1SC[C@H]2NC(=O)N[C@@H]21 | – | 2 µM [falling, partial curve, poor fit]
COc1ccc(C2=C(C(C)=O)Sc3nnc(-c4ccc(C)cc4)n3N2C(C)=O)cc1OC | 17.8 µM [rising, partial curve] | 35.5 µM [rising, single point]
O=C(COc1ccc2ccccc2c1)N1CCN(Cc2c[nH]c3ccccc23)CC1 | 28.2 µM [falling, single point] | 35.5 µM [falling, single point]
CC12CC[C@H]3[C@@H](CCC4(O)C[C@H](O)CCC34/C=N/NC(=O)Cc3ccccc3)C1(O)CCC2C1=CC(=O)OC1 (stereo not given in full) | 22.4 µM [rising, partial curve, poor fit] | –
Cc1ccc(C(=O)c2cn(CC(=O)Nc3ccc(C(C)C)cc3)c3nc(C)ccc3c2=O)cc1 | 0.00316 µM [falling, full curve, poor fit] | –
CCOC(=O)CSCCOc1ccc(C=C2C(=O)NC(=O)NC2=O)cc1OC | 0.00316 µM [rising, full curve, poor fit] | 0.00355 µM [rising, full curve, poor fit]
N#Cc1cccc(NC(=O)c2sc3nc4c(cc3c2N)N2CCC4CC2)c1 | – | 35.5 µM [falling, single point]
Cc1cc2c(s1)Nc1ccccc1N=C2N1CCN(C)CC1 | 25.1 µM [falling, single point] | 25.1 µM [falling, single point]
CCN(CC)C(=O)/C(Cl)=C(\C)OP(=O)(OC)OC | – | 0.562 µM [falling, full curve, poor fit]
Cc1onc(-c2ccccc2Cl)c1C(=O)OCC(=O)c1ccc2c(c1)OCCO2 | 17.8 µM [rising, partial curve] | 12.6 µM [rising, single point]
CCOc1ccc(NC(=O)c2cccn(Cc3cccc(Cl)c3)c2=O)cc1 | – | 7.08 µM [falling, partial curve]
N#CC(=Cc1ccc(O)c(O)c1)C(N)=S | – | 0.0562 µM [rising, full curve]
Oc1ccccc1/C=N/NP(=S)(c1ccccc1)c1ccccc1 | 22.4 µM [rising, partial curve] | 35.5 µM [rising, partial curve, poor fit]
